Results published in US20260070975A1.
Positions count from the first letter of the chain named. No constants are given. Whether binding was seen depends on the method and setting. Binding can be weak; no strength is given.

B1: hSR1-1 (antibody, human IgG1, kappa, V domains shown)
VH: QVQLVQSGAEVKKPGASVKVSCKASGYTFTSYNMHWVRQAPGQGLEWMGVIYSGNGDTSYAQKFQGRVTMTADTSTSTAYMELSSLRSEDTAVYYCARERDTRFGNWGQGTLVTVSS
VL: DIQLTQSPSSLSASVGDRATITCRASESVDIYGNSFMHWYQQKPGKAPKLLIYLASNLESGVPSRFSGSGSGTDFTLTISSVQPEDFATYYCQQNNEDPYTFGQGTKLEIKR
B2: hSR1-2 (antibody, human IgG1, kappa, V domains shown)
VH: B1 VH with V20M, M48I, V68A, M70L
VL: B1 VL
B3: hSR1-3 (antibody, human IgG1, kappa, V domains shown)
VH: B1 VH with T74K
VL: B1 VL
B4: hSR1-4 (antibody, human IgG1, kappa, V domains shown)
VH: B1 VH with V20M, M48I, V68A, M70L, T74K
VL: B1 VL
B5: hSR1-5 (antibody, human IgG1, kappa, V domains shown)
VH: B1 VH
VL: B1 VL with G72R
B6: hSR1-6 (antibody, human IgG1, kappa, V domains shown)
VH: B1 VH with V20M, M48I, V68A, M70L
VL: B1 VL with G72R

The binders below were run against His-tagged cynomolgus c-Kit (cynomolgus) (assay: ELISA, His-tagged antigen coated).

binding, binds:
B1, B2, B3, B4, B5, B6
